Experimental data from paper PMC11928461.
Results are given in words; binding and its absence hold for the method and conditions named.

Molecular target: T1, ANXA11 annexin repeat domain (ARD) hemiprotein (human (HeLa cell cDNA)) (UniProt P50995)
T1 sequence: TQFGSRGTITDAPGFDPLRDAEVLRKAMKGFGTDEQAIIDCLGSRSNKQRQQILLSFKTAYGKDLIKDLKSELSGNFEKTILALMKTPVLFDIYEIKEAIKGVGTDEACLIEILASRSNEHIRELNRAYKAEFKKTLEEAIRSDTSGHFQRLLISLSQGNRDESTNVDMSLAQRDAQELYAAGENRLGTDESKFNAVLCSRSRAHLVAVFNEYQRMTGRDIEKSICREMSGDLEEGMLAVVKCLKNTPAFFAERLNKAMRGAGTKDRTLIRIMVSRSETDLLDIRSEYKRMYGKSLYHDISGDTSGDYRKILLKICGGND
Assay: recruitment to protein-coated GUVs (confocal fluorescence microscopy); ATTO488 PI(3)P GUVs coated with 0.5 uM ANXA11 FL or 0.5 uM ARD at 100 uM Ca2+, 25 uM AF647-labelled LCD added; both purified

## ANXA11 low complexity domain (LCD) hemiprotein (from UniProt P50995 1-185) (domain or fragment)
  binding: no binding (tested: 25 uM LCD)
